Results taken from US20210100886A1 (SUMITOMO DAINIPPON PHARMA CO., LTD., priority 2017, published 2021).
End groups of sequences in plain letters are not given here.

Test: general procedure: Fmoc solid-phase peptide synthesis; Fmoc-Leu-Alko-PEG resin; HBTU/DIPEA
Conditions: whole synthesis, scale 0.24 mmol, TFA salt

**Q.** Which isolated mass does the source give for HCYTWNQMNL here?
**A.** 0.14 g
